Experimental data from US6689813B2 (Biostatin Gyogyszerkutato-Fejleszto kft., priority 1998, dated 2004).
At least one compound was matched to its structure with a doubt left.

Experiments:
Wistar rats [1] = assay: 1% mustard oil-induced neurogenic inflammation (Evans blue plasma extravasation, foot skin); type: in vivo, rat; settings: 20 μg/kg i.p.
Description: Thirty minutes after acute bilateral denervation of the lower limbs (transsection of the saphenous and sciatic nerves), 50 mg/kg of Evans blue dye was administered to the tail vein of nembutal-anaesthetized (pentobarbital, 40 mg/kg i.p.) Wistar rats (150-220 g body weight; 5 to 7 animals in each group). […] The mustard oil induces a so-called neurogenic inflammation by the selective stimulation of the peripheral endings of CSPAN's and by releasing the mediators being present therein (chiefly tachykinins and CGRP); this neurogenic inflammation appears as a vasodilatation in the area of arterioles and in the form of a plasma extravasation at the venular side. Since the dye Evans blue is bound to serum albumin in the vascular bed, its precipitation and accumulation in the upper skin surface of foot are proportional to the extent of plasma extravasation. Thus, the quantitative determination of intensity of the inflammation becomes possible. After the painting with mustard oil, the animals were bled, the foot dorsum skins were cut out and their weights were determined. The amount of dye extracted during 72 hours of incubation in formamide was determined at 620 nm on a spectrophotometer (Spectromon 195). The amount (expressed as μg) of the extravasated Evans blue related to one g of wet tissue was calculated by means of the following formula:
Evans blue (μg/g)=E×V×k/m […]

Wistar rats [2] = assay: Analgetic action: vegetative (pseudoaffective) reflex responses to mustard oil and capsaicin under urethane anaesthesia; type: in vivo, rat; parameters: Increase in heart rate: unit not given here; settings: 10 μg/kg i.p.
Source text: This test is based on the synchronous registration of several components of so-called pseudoaffective reflex responses, which can be induced on animals by pain-producing stimuli [Lim, R. K. S.: J. Comp. Neurol 118, 269-294 (1962)] under urethane anaesthesia.
A significant blood pressure increase of 45 mmHg as an average pressor response, heart rate increase of 85 (as an average) and hyperpnoea (the number of respirations increases by 61 per minute as an average) can be observed in control animals on the effect of strong chemonociceptive stimuli (painting of the lower limbs with 1% mustard oil or dropping a capsaicin solution of 100 μg/ml concentration into the eye) under urethane anaesthesia.
The blood pressure, heart rate and respiration of intact Wistar rats (5 to 7 animals in each group, with a body weight of 250 to 350 g) were continuously registered for 40 minutes through an arterial cannula as well as double ramifying trachea cannula. Ten minutes before beginning the measurement, the pretreated animals received intraperitoneally 10 μg/kg of somatostatin (SS), octreotide or TT-232, respectively. Both lower limbs of the animals were painted with mustard oil in the 3rd minute and capsaicin solution was dropped into their eyes in the 23rd minute. The vegetative responses given on these nociceptive stimuli were evaluated by using a specific computer program.

neurogenic inflammation = settings: earlier studies; cited from earlier work
Wistar rats [3] = assay: 0.5% dextran-induced non-neurogenic inflammation (foot swelling, plethysmometer) after chronic denervation; type: in vivo, rat; settings: Table 2, 10 μg/kg i.p. 10 min before dextran
Description: This test is based on the fact that a non-neurogenic, so-called clearly chemical inflammation can be induced by chemical excitation (e.g. by dextran, carrageenin, formalin) on a chronically denervated body area at least 5 days following the transsection of the nerve. These chemical agents release inflammation-inducing substances (histamine, bradykinin, PAF, prostaglandins and leucotrienes) from immunocytes, chiefly from mast cells.
Dextran solution (0.1 ml, 0.5%) is administered into both feet, underneath the plantar skin of Wistar rats (5 to 7 animals in each group) anaesthetized by nembutal (40 mg/kg i.v.) 5 days after bilateral denervation (transsection of the saphenous and sciatic nerves) of the lower limbs. The pretreated animals received somatostatin (SS), ocreotide or TT-232 (10 μg/kg i.p.) 10 minutes earlier. Before the administration of dextran (0 minute value), then after 10, 20 and 30 minutes, respectively, the swelling of the feet was measured by using a plethysmometer (Ugo Basil). Dextran elicits the so-called clearly chemical inflammation in the feet deprived of nerve supply (innervation) through the transmitters released from the mast cells.
A dose/effect ratio was determined for each substance.

With `C[C@H](N)C(=O)NCC(=O)N[C@H]1CSSC[C@@H](C(=O)O)NC(=O)[C@H](CO)NC(=O)[C@H]([C@@H](C)O)NC(=O)[C@H](Cc2ccccc2)NC(=O)[C@H]([C@@H](C)O)NC(=O)[C@H](CCCCN)NC(=O)[C@H](Cc2c[nH]c3ccccc23)NC(=O)[C@H](Cc2ccccc2)NC(=O)[C@H](Cc2ccccc2)NC(=O)[C@H](CC(N)=O)NC(=O)[C@H](CCCCN)NC1=O` [Somatostatin] the “Decrease % (Evans blue extravasation vs control)” value (Wistar rats [1]; 1% mustard oil) was 24.85%, the Evans blue extravasation (Wistar rats [1]; 1% mustard oil on feet, control 169.525) was 127.39 µg/g and the “Increase in respiration rate” value (Wistar rats [2]; after dropping capsaicin solution into the eye, control 47.5) was 26 per minute. For the same compound, the “Increase in mean arterial pressure” value (Wistar rats [2]; after dropping capsaicin solution into the eye, control 55) was 25.6 mmHg, the “Increase in heart rate” value (Wistar rats [2]; after dropping capsaicin solution into the eye, control 143) was 27.4 and the “Increase in mean arterial pressure” value (Wistar rats [2]; after painting the feet by mustard oil, control 45.4) was 21 mmHg. For the same compound, the “Increase in respiration rate” value (Wistar rats [2]; after painting the feet by mustard oil, control 60.75) was 20.2 per minute, the “Increase in heart rate” value (Wistar rats [2]; after painting the feet by mustard oil, control 84.8) was 22.2 and the “effect of pretreatment on experimentally induced neurogenic inflammation (in words)” value (neurogenic inflammation) was “prevented”. For the same compound, the foot swelling % (Wistar rats [3]; 10 minutes, control 32.97) was 19.5%, the foot swelling % (Wistar rats [3]; 20 minutes, control 49.695) was 34.2% and the foot swelling % (Wistar rats [3]; 30 minutes, control 56.68) was 39.13%.
